These are yes or no findings as the source states them, for the method shown. In cells and extracts the contact can be indirect. Here binding means that the protein was enriched with, or labelled near, the bait; the list need not be complete.
B1: IFT20 (protein, UniProt Q8LLV9 1-135)
chain: MDAVDRGVYFDEDFHVRILDVDKYNASKSLQDNTNVFINNIQNMQGLVDKYVSAIDQQVERLEAEKLKAIGLRNRVAALSEERKRKQKEQERMLAEKQEELERLQMEEQSLIKVKGEQELMIQKLSDSSSGAAYV
B2: Kinesin-2 (protein, UniProt A7LGV1 1-768)
chain: MASGGECVKVAVRCRPLNGKEKGDNRATIVEVDNKTGQVTLNNPKGDEPPKTFTFDNAFDWNVTQRDVYDVVARPIVNSVMDGYNGTIFAYGQTGTGKTHTMEGFPTPELQGIIPNCFDHVFETVNSSTGKQWMVRASYLEIYNEEVRDLLSKDPKNKLELKEHKDSGVYVKGLNAFVVKGVPELKNVLEVGKKNRSVGATLMNQDSSRSHSIFTITIETIEQTQAQPEGHIRVGKLNLVDLAGSERQSKTGATGDRLKEATKINLSLSALGNVISALVDGKSGHVPYRDSKLTRLLQDSLGGNTKTIMCANMGPADWNYDETLSTLRYANRAKNIKNKPKINEDPKDAMLREFQDEIARLKAALEAEGGALPEGFATGPGGEIIVEKVVQVPKALDASFLEQMRKDMEEQMKKELASQQAAALNDEQLQKVKEEAAAKAKAEAARLEEEKKKAEEEAARMQRKQQKIKAEMDKKSLDAEQIRAEKEALAKKLKAMESKILKGDQAGGLAEVTKKKEEELKRKEQELERRRKEEEEQRKKIQVMEEQQLAMEDKYKDKADEADQKTKKLKKLWKKFQEVNAEVEDMYKEFQREKEDLLESIRMLQDQMQLKDMVIEAFIPPEEVQKVMKRAHWDDEREVWVLERLSDIGKRETAQGASRRPVSASGQRRPTSDFAKLANAMGDMNPRFKSENILNLELDLPERTTYDYEGPGVDPRVQAAINAAFAEDGELIFVGSEQNVHLGDASAAAARPDSAKKRPASARKGTKK

Target: Channelrhodopsin 1 (Chlamydomonas reinhardtii (endogenous in C. reinhardtii cells))
Experiment: affinity purification with mass spectrometry; ChR1 immunoprecipitated with anti-ChR1 from pre-cleared C. reinhardtii total cell lysate (IP-lysis buffer: 1X PBS, 1% NP-40, 0.5% sodium deoxycholate, 0.1% SDS), overnight at 4 °C, protein A/G beads; eluate trypsin digested, Nano-LC-MS/MS; hits present in ChR1-IP but not in the pre-immune serum control

Row | Binder | binding
1 | B1 | binds
2 | B2 | binds

Source: publication PMC5046144
